# Measurements as given in paper PMC5675994.
# Amino acid sequences for entries named in this document (tags omitted). A change or cut given only in a name is not applied to a line headed by its entry.
# UniProt Q07540: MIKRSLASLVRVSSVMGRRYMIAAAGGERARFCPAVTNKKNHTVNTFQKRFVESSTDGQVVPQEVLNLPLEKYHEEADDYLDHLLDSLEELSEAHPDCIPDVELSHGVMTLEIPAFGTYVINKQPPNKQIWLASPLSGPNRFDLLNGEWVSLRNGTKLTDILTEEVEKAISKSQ
# T1: Nfs1-His6 (S. cerevisiae) (UniProt P25374)
# T1 sequence: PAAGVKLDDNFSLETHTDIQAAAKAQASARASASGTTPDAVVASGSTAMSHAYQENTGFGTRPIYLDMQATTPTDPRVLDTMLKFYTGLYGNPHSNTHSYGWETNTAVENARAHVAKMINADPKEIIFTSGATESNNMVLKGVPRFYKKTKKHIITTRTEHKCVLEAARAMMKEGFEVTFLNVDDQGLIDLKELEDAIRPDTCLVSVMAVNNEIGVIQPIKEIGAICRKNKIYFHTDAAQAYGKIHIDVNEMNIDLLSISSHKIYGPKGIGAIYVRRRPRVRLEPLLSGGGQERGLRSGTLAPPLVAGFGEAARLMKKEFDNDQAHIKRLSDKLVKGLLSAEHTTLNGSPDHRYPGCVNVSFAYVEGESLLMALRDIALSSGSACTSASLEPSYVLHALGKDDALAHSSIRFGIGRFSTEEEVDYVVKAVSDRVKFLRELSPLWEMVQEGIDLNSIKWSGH
# T2: Nfs1-His6 (S. cerevisiae), P25374
# T2 chain: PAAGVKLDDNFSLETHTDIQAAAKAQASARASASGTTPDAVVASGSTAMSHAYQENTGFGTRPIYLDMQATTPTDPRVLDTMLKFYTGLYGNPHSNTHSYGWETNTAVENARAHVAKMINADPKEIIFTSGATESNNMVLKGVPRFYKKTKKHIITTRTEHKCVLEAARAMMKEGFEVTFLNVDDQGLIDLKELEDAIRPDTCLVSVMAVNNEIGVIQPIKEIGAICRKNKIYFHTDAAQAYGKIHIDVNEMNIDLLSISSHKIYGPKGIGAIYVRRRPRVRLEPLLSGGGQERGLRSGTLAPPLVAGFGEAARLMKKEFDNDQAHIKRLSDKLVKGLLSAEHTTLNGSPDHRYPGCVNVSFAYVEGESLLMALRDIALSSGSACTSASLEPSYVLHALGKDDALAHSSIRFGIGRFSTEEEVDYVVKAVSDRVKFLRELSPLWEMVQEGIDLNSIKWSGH
# How the values were obtained:
# [1] = target: Yfh1-His6 (S. cerevisiae) (UniProt Q07540); assay: affinity purification with mass spectrometry; Yfh1-His6 held on Ni-NTA superflow agarose from French-press lysate (108,000xg supernatant) of isolated mitochondria of the Yfh1-His6 yeast strain; 50 mM TrisCl pH 7.5, 80 mM KCl, 10% glycerol, wash 40 mM imidazole with 0.1% Triton X-100, elution 400 mM imidazole; eluate analysed by LC-MS/MS
# [2] = target: T1, Nfs1-His6 (S. cerevisiae); assay: affinity purification with mass spectrometry; Nfs1-His6 held on Ni-NTA superflow agarose from sonicated, cleared lysate of isolated mitochondria of the Gal-Nfs1-His6 yeast strain; 50 mM TrisCl pH 7.5, 80 mM KCl, 10% glycerol, wash 40 mM imidazole, elution 400 mM imidazole; eluate analysed by LC-MS/MS
# [3] = target: T2, Nfs1-His6 (S. cerevisiae), P25374; assay: as above; details: remark: other sources report otherwise
binding [1],binding [2],binding [3],Binder
binds,binds,,"Isocitrate dehydrogenase [NAD] subunit 2, mitochondrial (protein, UniProt P28241 16-369) ATVKQPSIGRYTGKPNPSTGKYTVSFIEGDGIGPEISKSVKKIFSAANVPIEWESCDVSPIFVNGLTTIPDPAVQSITKNLVALKGPLATPIGKGHRSLNLTLRKTFGLFANVRPAKSIEGFKTTYENVDLVLIRENTEGEYSGIEHIVCPGVVQSIKLITRDASERVIRYAFEYARAIGRPRVIVVHKSTIQRLADGLFVNVAKELSKEYPDLTLETELIDNSVLKVVTNPSAYTDAVSVCPNLYGDILSDLNSGLSAGSLGLTPSANIGHKISIFEAVHGSAPDIAGQDKANPTALLLSSVMMLNHMGLTNHADQIQNAVLSTIASGPENRTGDLAGTATTSSFTEAVIKRL"
binds,binds,,"Pyruvate decarboxylase isozyme 1 (protein, UniProt P06169 1-563) MSEITLGKYLFERLKQVNVNTVFGLPGDFNLSLLDKIYEVEGMRWAGNANELNAAYAADGYARIKGMSCIITTFGVGELSALNGIAGSYAEHVGVLHVVGVPSISAQAKQLLLHHTLGNGDFTVFHRMSANISETTAMITDIATAPAEIDRCIRTTYVTQRPVYLGLPANLVDLNVPAKLLQTPIDMSLKPNDAESEKEVIDTILALVKDAKNPVILADACCSRHDVKAETKKLIDLTQFPAFVTPMGKGSIDEQHPRYGGVYVGTLSKPEVKEAVESADLILSVGALLSDFNTGSFSYSYKTKNIVEFHSDHMKIRNATFPGVQMKFVLQKLLTTIADAAKGYKPVAVPARTPANAAVPASTPLKQEWMWNQLGNFLQEGDVVIAETGTSAFGINQTTFPNNTYGISQVLWGSIGFTTGATLGAAFAAEEIDPKKRVILFIGDGSLQLTVQEISTMIRWGLKPYLFVLNNDGYTIEKLIHGPKAQYNEIQGWDHLSLLPTFGAKDYETHRVATTGEWDKLTQDKSFNDNSKIRMIEIMLPVFDAPQNLVEQAKLTAATNAKQ"
binds,binds,,"Isocitrate dehydrogenase [NAD] subunit 1, mitochondrial (protein, UniProt P28834 12-360) ATAAQAERTLPKKYGGRFTVTLIPGDGVGKEITDSVRTIFEAENIPIDWETINIKQTDHKEGVYEAVESLKRNKIGLKGLWHTPADQTGHGSLNVALRKQLDIYANVALFKSLKGVKTRIPDIDLIVIRENTEGEFSGLEHESVPGVVESLKVMTRPKTERIARFAFDFAKKYNRKSVTAVHKANIMKLGDGLFRNIITEIGQKEYPDIDVSSIIVDNASMQAVAKPHQFDVLVTPSMYGTILGNIGAALIGGPGLVAGANFGRDYAVFEPGSRHVGLDIKGQNVANPTAMILSSTLMLNHLGLNEYATRISKAVHETIAEGKHTTRDIGGSSSTTDFTNEIINKLSTM"
binds,binds,,"ATP synthase subunit gamma, mitochondrial (protein, UniProt P38077 34-311) ATLKEVEMRLKSIKNIEKITKTMKIVASTRLSKAEKAKISAKKMDEAEQLFYKNAETKNLDVEATETGAPKELIVAITSDKGLCGSIHSQLAKAVRRHLNDQPNADIVTIGDKIKMQLLRTHPNNIKLSINGIGKDAPTFQESALIADKLLSVMKAGTYPKISIFYNDPVSSLSFEPSEKPIFNAKTIEQSPSFGKFEIDTDANVPRDLFEYTLANQMLTAMAQGYAAEISARRNAMDNASKNAGDMINRYSILYNRTRQAVITNELVDIITGASSLG"
binds,binds,,"Branched-chain-amino-acid aminotransferase, mitochondrial (protein, UniProt P38891 17-393) LATGAPLDASKLKITRNPNPSKPRPNEELVFGQTFTDHMLTIPWSAKEGWGTPHIKPYGNLSLDPSACVFHYAFELFEGLKAYRTPQNTITMFRPDKNMARMNKSAARICLPTFESEELIKLTGKLIEQDKHLVPQGNGYSLYIRPTMIGTSKGLGVGTPSEALLYVITSPVGPYYKTGFKAVRLEATDYATRAWPGGVGDKKLGANYAPCILPQLQAAKRGYQQNLWLFGPEKNITEVGTMNVFFVFLNKVTGKKELVTAPLDGTILEGVTRDSVLTLARDKLDPQEWDINERYYTITEVATRAKQGELLEAFGSGTAAVVSPIKEIGWNNEDIHVPLLPGEQCGALTKQVAQWIADIQYGRVNYGNWSKTVADLN"
binds,binds,,"DnaJ homolog 1, mitochondrial (protein, UniProt P35191 56-511) NEAFKDPYDTLGLKKSATGAEIKKAYYKLAKKYHPDINKEPDAEKKFHDLQNAYEILSDETKRQQYDQFGPAAFGGGGAAGGAGGGSGSPFGSQFHDFSGFTSAGGSPFGGINFEDLFGAAFGGGGRGSGGASRSSSMFRQYRGDPIEIVHKVSFKDAVFGSKNVQLRFSALDPCSTCSGTGMKPNTHKVSCSTCHGTGTTVHIRGGFQMMSTCPTCNGEGTMKRPQDNCTKCHGEGVQVNRAKTITVDLPHGLQDGDVVRIPGQGSYPDIAVEADLKDSVKLSRGDILVRIRVDKDPNFSIKNKYDIWYDKEIPITTAALGGTVTIPTVEGQKIRIKVAPGTQYNQVISIPNMGVPKTSTIRGDMKVQYKIVVKKPQSLAEKCLWEALADVTNDDMAKKTMQPGTAAGTAINEEILKKQKQEEEKHAKKDDDNTLKRLENFITNTFRKIKGDKKN"
,,binds,"Malate dehydrogenase, mitochondrial, P17505 18-334 (protein) YKVTVLGAGGGIGQPLSLLLKLNHKVTDLRLYDLKGAKGVATDLSHIPTNSVVKGFTPEEPDGLNNALKDTDMVLIPAGVPRKPGMTRDDLFAINASIVRDLAAATAESAPNAAILVISNPVNSTVPIVAQVLKNKGVYNPKKLFGVTTLDSIRAARFISEVENTDPTQERVNVIGGHSGITIIPLISQTNHKLMSDDKRHELIHRIQFGGDEVVKAKNGAGSATLSMAHAGAKFANAVLSGFKGERDVIEPSFVDSPLFKSEGIEFFASPVTLGPDGIEKIHPIGELSSEEEEMLQKCKETLKKNIEKGVNFVASK"

# No constants are given. Whether binding was seen depends on the method and setting. Binding seen in cells or lysates may run through a third protein. A yes stands for co-enrichment or nearness to the bait. Other partners may have been found. For some of these results: Tags and fused reporters may be left off the sequences shown.
